Laboratory results published in PubChem BioAssay AID248 (DTP/NCI, 2004).
The list shows only some results of the screen, not a fair sample: it gathers tests that were run many times, whatever their T/C, doses with no T/C, and many T/C values between a quarter and a half above the control. Other doses and runs of a compound stand elsewhere. T/C is the treated group as % of the vehicle group. Some entries give survivors of the animals treated and no T/C: the source files T/C as zero there, which appears to mark a toxic dose or a test without result, not a measured value. Some survivor counts are full or nearly so, which does not show that the dose was tolerated: survival well below the control is almost never listed, so the zero probably covers shortened survival too. Survivors were counted at the toxicity check, usually on the fifth day, unless a day is given; later deaths do not show. Schedules are NCI's codes, taken here to give the interval after Q, in days (D) or hours (H), and the number of doses after X. Some schedules carry Z or #; the key to these is not given. Some entries hold several experiments; their values stand side by side, smallest first. For survival time, the PubChem record calls one and a half times the control and up active, and a quarter to a half above the control has no call in these data; cut-offs in other NCI protocols can differ. Some T/C values carry the count of animals alive at the toxicity check (mostly the fifth day); without a count, all were alive then.

Tested on: L1210 leukemia ip in BDF1 mice, survival T/C
Test: NCI In Vivo Anticancer Drug Screen. Data for tumor model L1210 Leukemia (intraperitoneal) in B6D2F1 (BDF1) mice
Conditions: T/C endpoint: mean survival time, higher T/C = longer survival

COC12C(COC(N)=O)C3=C(C(=O)C(C)=C(N)C3=O)N1CC1C2N1C (configuration not stated)
T/C (dose: 2.0 mg/kg/injection, schedule: Q01DX009 (ip), vehicle: saline): 139 % of control
T/C (dose: 3.0 mg/kg/injection, schedule: Q01DX009 (ip), vehicle: saline): 128 % of control
T/C (dose: 3.0 mg/kg/injection, schedule: Q01DX015 (ip), vehicle: carboxymethylcellulose (CMC)): 129 % of control
T/C (dose: 3.3 mg/kg/injection, schedule: Q01DX007 (ip), vehicle: carboxymethylcellulose (CMC)): 129 % of control
T/C (dose: 3.5 mg/kg/injection, schedule: Q01DX015 (ip), vehicle: saline, evaluated on day 46): 126 % of control
T/C (dose: 3.5 mg/kg/injection, schedule: Q01DX015 (ip), vehicle: saline, run until all animals had died): 129 % of control
T/C (dose: 4.0 mg/kg/injection, schedule: Q01DX009 (ip), vehicle: Klucel (hydroxypropylcellulose) (HPC)): 129 % of control
T/C (dose: 4.0 mg/kg/injection, schedule: Q01DX009 (ip), vehicle: saline, evaluated on day 39): 143 % of control
T/C (dose: 4.0 mg/kg/injection, schedule: Q01DX009 (ip), vehicle: saline, evaluated on day 40): 144 % of control
T/C (dose: 4.0 mg/kg/injection, schedule: Q01DX009 (sc), vehicle: saline): 125 % of control
T/C (dose: 4.0 mg/kg/injection, schedule: Q01DX015 (ip), vehicle: carboxymethylcellulose (CMC)): 131 % of control
T/C (dose: 5.0 mg/kg/injection, schedule: Q01DX015 (ip), vehicle: carboxymethylcellulose (CMC)): 132 and 136 % of control
T/C (dose: 5.0 mg/kg/injection, schedule: Q01DX015 (ip), vehicle: saline, evaluated on day 46): 133 % of control
T/C (dose: 5.0 mg/kg/injection, schedule: Q01DX015 (ip), vehicle: saline, run until all animals had died): 148 % of control
T/C (dose: 5.0 mg/kg/injection, schedule: Q## X003 (ip), vehicle: saline): 133 % of control
T/C (dose: 6.0 mg/kg/injection, schedule: Q01DX001 (ip), vehicle: saline): 125 % of control
T/C (dose: 6.0 mg/kg/injection, schedule: Q01DX009 (sc), vehicle: saline): 131 % of control
T/C (dose: 6.0 mg/kg/injection, schedule: Q## X003 (ip), vehicle: saline): 136 % of control
T/C (dose: 6.0 mg/kg/injection, schedule: Q## X040 (ip), vehicle: saline): 134 and 143 % of control
T/C (dose: 6.5 mg/kg/injection, schedule: Q01DX015 (ip), vehicle: saline, evaluated on day 46): 133 and 137 % of control
T/C (dose: 6.5 mg/kg/injection, schedule: Q01DX015 (ip), vehicle: saline, run until all animals had died): 140 % of control
T/C (dose: 7.5 mg/kg/injection, schedule: Q01DX009 (oral), vehicle: saline): 127 % of control
T/C (dose: 7.5 mg/kg/injection, schedule: Q## X003 (ip), vehicle: saline): 141 % of control
T/C (dose: 8.0 mg/kg/injection, schedule: Q01DX009 (ip), vehicle: Klucel (hydroxypropylcellulose) (HPC)): 138 % of control [9 of 10 alive]
T/C (dose: 8.0 mg/kg/injection, schedule: Q01DX009 (sc), vehicle: saline): 135 % of control
T/C (dose: 8.0 mg/kg/injection, schedule: Q01DX015 (ip), vehicle: saline): 133 % of control
T/C (dose: 8.0 mg/kg/injection, schedule: Q02DX008 (ip), vehicle: saline): 137 % of control
T/C (dose: 8.0 mg/kg/injection, schedule: Q## X040 (ip), vehicle: saline): 145 % of control
T/C (dose: 10.0 mg/kg/injection, schedule: Q01DX009 (oral), vehicle: saline): 134 % of control
T/C (dose: 10.0 mg/kg/injection, schedule: Q01DX Z (ip), vehicle: carboxymethylcellulose (CMC)): 137 % of control
T/C (dose: 10.0 mg/kg/injection, schedule: Q## X003 (ip), vehicle: saline): 149 % of control
T/C (dose: 10.0 mg/kg/injection, schedule: Q## X004 (ip), vehicle: saline): 135 % of control
T/C (dose: 11.0 mg/kg/injection, schedule: Q01DX001 (ip), vehicle: carboxymethylcellulose (CMC)): 126 % of control
T/C (dose: 12.0 mg/kg/injection, schedule: Q01DX001 (ip), vehicle: saline): 129 % of control
T/C (dose: 12.0 mg/kg/injection, schedule: Q01DX009 (oral), vehicle: saline): 147 % of control
T/C (dose: 12.0 mg/kg/injection, schedule: Q01DX009 (sc), vehicle: saline): 142 % of control
T/C (dose: 12.0 mg/kg/injection, schedule: Q## X008 (ip), vehicle: saline): 129 % of control
T/C (dose: 12.0 mg/kg/injection, schedule: Q## X040 (ip), vehicle: saline): 148 % of control
T/C (dose: 13.0 mg/kg/injection, schedule: Q01DX001 (ip), vehicle: carboxymethylcellulose (CMC)): 139 % of control
T/C (dose: 15.0 mg/kg/injection, schedule: Q01DX001 (ip), vehicle: saline, evaluated on day 30): 131 % of control
T/C (dose: 15.0 mg/kg/injection, schedule: Q01DX001 (ip), vehicle: saline, evaluated on day 46): 125 % of control
T/C (dose: 15.0 mg/kg/injection, schedule: Q01DX009 (oral), vehicle: saline): 144 % of control
T/C (dose: 16.0 mg/kg/injection, schedule: Q01DX009 (ip), vehicle: Klucel (hydroxypropylcellulose) (HPC)): 128 % of control
T/C (dose: 16.0 mg/kg/injection, schedule: Q## X008 (ip), vehicle: saline): 127 % of control
T/C (dose: 16.0 mg/kg/injection, schedule: Q## X024 (ip), vehicle: saline): 131 % of control
T/C (dose: 16.0 mg/kg/injection, schedule: Q## X032 (ip), vehicle: saline): 126 and 136 % of control
T/C (dose: 17.0 mg/kg/injection, schedule: Q01DX001 (ip), vehicle: carboxymethylcellulose (CMC)): 131 % of control
T/C (dose: 18.0 mg/kg/injection, schedule: Q01DX009 (oral), vehicle: saline): 140 % of control
T/C (dose: 20.0 mg/kg/injection, schedule: Q01DX001 (ip), vehicle: saline, evaluated on day 39): 132 % of control
T/C (dose: 20.0 mg/kg/injection, schedule: Q01DX001 (ip), vehicle: saline, evaluated on day 40): 135 % of control
T/C (dose: 20.0 mg/kg/injection, schedule: Q01DX001 (ip), vehicle: saline, evaluated on day 46): 140 % of control
T/C (dose: 20.0 mg/kg/injection, schedule: Q01DX Z (ip), vehicle: carboxymethylcellulose (CMC)): 130 and 145 % of control
T/C (dose: 20.0 mg/kg/injection, schedule: Q## X032 (ip), vehicle: saline): 126 % of control
T/C (dose: 24.0 mg/kg/injection, schedule: Q01DX009 (oral), vehicle: saline): 130 % of control
T/C (dose: 24.0 mg/kg/injection, schedule: Q02DX008 (ip), vehicle: saline): 134 % of control
T/C (dose: 24.0 mg/kg/injection, schedule: Q## X008 (ip), vehicle: saline): 136 % of control
T/C (dose: 24.0 mg/kg/injection, schedule: Q## X032 (ip), vehicle: saline): 129 [9 of 10 alive] and 133 % of control
T/C (dose: 24.0 mg/kg/injection, schedule: Q## X040 (ip), vehicle: saline): 125 % of control
T/C (dose: 25.0 mg/kg/injection, schedule: Q01DX001 (ip), vehicle: saline, evaluated on day 30): 139 and 143 % of control
T/C (dose: 25.0 mg/kg/injection, schedule: Q01DX001 (ip), vehicle: saline, evaluated on day 46): 142 % of control
survivor count (dose: 30.0 mg/kg/injection, schedule: Q01DX Z (ip), vehicle: carboxymethylcellulose (CMC)): 6 of 6
survivor count (dose: 32.0 mg/kg/injection, schedule: Q01DX009 (ip), vehicle: Klucel (hydroxypropylcellulose) (HPC)): 10 of 10
T/C (dose: 32.0 mg/kg/injection, schedule: Q## X008 (ip), vehicle: saline): 126 % of control
T/C (dose: 32.0 mg/kg/injection, schedule: Q## X024 (ip), vehicle: saline): 144 % of control
T/C (dose: 32.5 mg/kg/injection, schedule: Q01DX001 (ip), vehicle: saline): 125 % of control
T/C (dose: 40.0 mg/kg/injection, schedule: Q01DX001 (ip), vehicle: saline, evaluated on day 30): 125 and 148 % of control
T/C (dose: 40.0 mg/kg/injection, schedule: Q01DX001 (ip), vehicle: saline, evaluated on day 39): 164 % of control
T/C (dose: 40.0 mg/kg/injection, schedule: Q01DX001 (ip), vehicle: saline, evaluated on day 40): 154 % of control
T/C (dose: 40.0 mg/kg/injection, schedule: Q01DX001 (ip), vehicle: saline, evaluated on day 46): 156 and 204 % of control
T/C (dose: 40.0 mg/kg/injection, schedule: Q01DX001 (ip), vehicle: saline, run until all animals had died): 165 % of control
T/C (dose: 40.0 mg/kg/injection, schedule: Q01DX001 (sc), vehicle: saline): 128 % of control
T/C (dose: 40.0 mg/kg/injection, schedule: Q## X032 (ip), vehicle: saline): 145 % of control
T/C (dose: 50.0 mg/kg/injection, schedule: Q01DX001 (ip), vehicle: saline, evaluated on day 30): 87 and 110 % of control
T/C (dose: 50.0 mg/kg/injection, schedule: Q01DX001 (ip), vehicle: saline, evaluated on day 46): 134 % of control
T/C (dose: 50.0 mg/kg/injection, schedule: Q01DX001 (ip), vehicle: saline, run until all animals had died): 154 and 168 % of control
T/C (dose: 60.0 mg/kg/injection, schedule: Q01DX001 (ip), vehicle: saline, evaluated on day 39): 146 % of control
T/C (dose: 60.0 mg/kg/injection, schedule: Q01DX001 (ip), vehicle: saline, evaluated on day 40): 129 % of control
T/C (dose: 60.0 mg/kg/injection, schedule: Q01DX001 (ip), vehicle: saline, evaluated on day 46): 124 % of control
T/C (dose: 60.0 mg/kg/injection, schedule: Q01DX001 (ip), vehicle: saline, run until all animals had died): 132 % of control
T/C (dose: 60.0 mg/kg/injection, schedule: Q01DX001 (sc), vehicle: saline): 130 % of control
survivor count (dose: 60.0 mg/kg/injection, schedule: Q## X003 (ip), vehicle: saline): 9 of 10
T/C (dose: 64.0 mg/kg/injection, schedule: Q## X016 (ip), vehicle: saline): 131 % of control
T/C (dose: 90.0 mg/kg/injection, schedule: Q01DX001 (ip), vehicle: saline, evaluated on day 39): 90 % of control
T/C (dose: 90.0 mg/kg/injection, schedule: Q01DX001 (ip), vehicle: saline, evaluated on day 40): 114 % of control [9 of 10 alive]
T/C (dose: 90.0 mg/kg/injection, schedule: Q01DX001 (ip), vehicle: saline, evaluated on day 46): 108 % of control [9 of 10 alive]
survivor count (dose: 90.0 mg/kg/injection, schedule: Q01DX001 (ip), vehicle: saline): 4 of 6
T/C (dose: 90.0 mg/kg/injection, schedule: Q01DX001 (oral), vehicle: saline): 140 % of control
T/C (dose: 135.0 mg/kg/injection, schedule: Q01DX001 (oral), vehicle: saline): 137 % of control
survivor count (dose: 180.0 mg/kg/injection, schedule: Q01DX001 (ip), vehicle: saline): 5 of 10 and 5 of 6
survivor count (dose: 200.0 mg/kg/injection, schedule: Q01DX001 (ip), vehicle: saline): 6 of 6
survivor count (dose: 270.0 mg/kg/injection, schedule: Q01DX001 (oral), vehicle: saline): 10 of 10
survivor count (dose: 400.0 mg/kg/injection, schedule: Q01DX001 (ip), vehicle: saline): 0 of 6
